Article PMC8298100
No constants are given. Whether binding was seen depends on the method and setting. Binding seen in cells or lysates may run through a third protein. Some results given as binding are weak or reduced against the parent protein; the word gives no strength. For part of these data: Where a sequence is shown, tags or fusion partners need not be part of it.

The chains behind the UniProt entries cited, without tags or fusion partners. Where a name states a change or a piece, a line headed by the entry shows the natural chain unless it says otherwise.
UniProt O43399: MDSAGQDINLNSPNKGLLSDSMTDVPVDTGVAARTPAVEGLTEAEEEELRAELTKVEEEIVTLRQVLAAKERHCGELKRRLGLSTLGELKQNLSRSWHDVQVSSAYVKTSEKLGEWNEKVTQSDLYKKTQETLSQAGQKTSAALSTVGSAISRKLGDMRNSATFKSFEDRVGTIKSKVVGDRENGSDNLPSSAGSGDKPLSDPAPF

Key:
Test in all cases: co-IP; FLAG-TPD52, FLAG-TPD53 or FLAG-TPD54 coexpressed in HeLa with GFP-FKBP constructs; lysis in 10 mM Tris pH 7.5, 150 mM NaCl, 0.5 mM EDTA, 1% Triton X-100; anti-FLAG M2 magnetic beads 2 h at 4°C; Western blot with anti-GFP
[1] = molecular target: T1, FLAG-TPD52 (human) (UniProt P55327)
T1 sequence: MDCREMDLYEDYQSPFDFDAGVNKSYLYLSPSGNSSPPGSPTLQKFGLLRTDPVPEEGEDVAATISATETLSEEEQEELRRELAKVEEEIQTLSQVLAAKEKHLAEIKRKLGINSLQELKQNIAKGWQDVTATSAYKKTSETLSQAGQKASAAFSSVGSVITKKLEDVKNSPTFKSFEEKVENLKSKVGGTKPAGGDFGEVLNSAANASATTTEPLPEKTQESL

[2] = molecular target: FLAG-TPD54 (human) (UniProt O43399)
[3] = molecular target: T2, FLAG-TPD53 (human) (UniProt Q16890)
T2 sequence: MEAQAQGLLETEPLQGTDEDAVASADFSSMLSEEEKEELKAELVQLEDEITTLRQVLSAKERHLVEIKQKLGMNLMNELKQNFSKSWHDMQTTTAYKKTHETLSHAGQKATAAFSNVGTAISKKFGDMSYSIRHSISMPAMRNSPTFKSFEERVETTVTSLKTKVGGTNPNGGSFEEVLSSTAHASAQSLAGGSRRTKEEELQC

binding [1]: binds | binding [2]: binds | binding [3]: binds
Substance: GFP-FKBP-TPD54 (from UniProt O43399-1 1-206)
